# Experimental data published in the supplement of paper PMC12823440, “Inhibitors supercharge kinase turnover through native proteolytic circuits” (Nature, 2025).
# By UniProt entry, the sequences of proteins in these tests, tags left out. Where a name states a change or a piece, a line headed by the entry shows the natural chain unless it says otherwise.
# UniProt Q9UQM7, whole entry: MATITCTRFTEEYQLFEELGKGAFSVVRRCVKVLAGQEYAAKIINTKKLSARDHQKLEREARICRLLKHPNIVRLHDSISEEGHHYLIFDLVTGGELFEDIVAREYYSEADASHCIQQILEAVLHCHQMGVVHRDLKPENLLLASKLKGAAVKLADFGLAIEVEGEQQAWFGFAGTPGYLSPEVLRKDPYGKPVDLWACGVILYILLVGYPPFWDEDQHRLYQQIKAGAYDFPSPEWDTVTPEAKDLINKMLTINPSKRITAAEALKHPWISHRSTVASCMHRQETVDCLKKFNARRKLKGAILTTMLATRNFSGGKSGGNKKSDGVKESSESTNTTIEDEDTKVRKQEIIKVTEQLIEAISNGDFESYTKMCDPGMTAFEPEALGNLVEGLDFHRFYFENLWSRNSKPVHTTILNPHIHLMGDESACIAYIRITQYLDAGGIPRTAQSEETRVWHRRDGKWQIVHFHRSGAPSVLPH
# UniProt Q15131: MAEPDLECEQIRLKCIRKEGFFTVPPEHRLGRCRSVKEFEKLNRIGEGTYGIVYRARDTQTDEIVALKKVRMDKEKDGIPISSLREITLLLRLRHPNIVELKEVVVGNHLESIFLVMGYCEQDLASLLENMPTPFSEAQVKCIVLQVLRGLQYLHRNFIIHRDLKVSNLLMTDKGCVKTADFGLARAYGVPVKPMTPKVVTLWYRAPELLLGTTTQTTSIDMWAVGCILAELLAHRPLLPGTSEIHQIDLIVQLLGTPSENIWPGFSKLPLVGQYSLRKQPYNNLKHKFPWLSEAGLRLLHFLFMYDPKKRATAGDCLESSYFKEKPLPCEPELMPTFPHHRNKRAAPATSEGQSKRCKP
# UniProt Q00526: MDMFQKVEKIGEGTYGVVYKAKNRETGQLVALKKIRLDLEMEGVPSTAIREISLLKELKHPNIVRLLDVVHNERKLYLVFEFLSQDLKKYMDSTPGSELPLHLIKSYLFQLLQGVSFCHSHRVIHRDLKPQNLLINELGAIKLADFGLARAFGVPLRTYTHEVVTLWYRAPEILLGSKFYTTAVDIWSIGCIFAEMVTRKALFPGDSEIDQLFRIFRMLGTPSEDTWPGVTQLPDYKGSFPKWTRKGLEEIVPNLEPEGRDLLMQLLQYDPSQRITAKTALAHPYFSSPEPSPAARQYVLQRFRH
# UniProt Q00535, whole entry, looked up: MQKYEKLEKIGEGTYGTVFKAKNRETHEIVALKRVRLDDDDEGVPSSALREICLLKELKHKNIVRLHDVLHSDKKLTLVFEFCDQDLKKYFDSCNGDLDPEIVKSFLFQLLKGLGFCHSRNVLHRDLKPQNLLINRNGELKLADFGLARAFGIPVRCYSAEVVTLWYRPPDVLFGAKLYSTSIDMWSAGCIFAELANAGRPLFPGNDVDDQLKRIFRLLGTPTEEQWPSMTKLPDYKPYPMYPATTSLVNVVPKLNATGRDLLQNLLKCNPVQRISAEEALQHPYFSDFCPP
# UniProt Q00534, whole entry: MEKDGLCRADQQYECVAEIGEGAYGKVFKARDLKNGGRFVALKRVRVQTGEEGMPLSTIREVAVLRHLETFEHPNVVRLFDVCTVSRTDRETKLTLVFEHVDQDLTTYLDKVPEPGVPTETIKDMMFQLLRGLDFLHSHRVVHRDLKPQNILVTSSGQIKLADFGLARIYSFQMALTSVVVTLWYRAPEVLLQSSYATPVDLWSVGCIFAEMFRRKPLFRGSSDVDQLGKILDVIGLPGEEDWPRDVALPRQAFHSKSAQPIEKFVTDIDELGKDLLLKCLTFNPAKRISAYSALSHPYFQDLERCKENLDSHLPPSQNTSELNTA
# UniProt P07333, whole entry: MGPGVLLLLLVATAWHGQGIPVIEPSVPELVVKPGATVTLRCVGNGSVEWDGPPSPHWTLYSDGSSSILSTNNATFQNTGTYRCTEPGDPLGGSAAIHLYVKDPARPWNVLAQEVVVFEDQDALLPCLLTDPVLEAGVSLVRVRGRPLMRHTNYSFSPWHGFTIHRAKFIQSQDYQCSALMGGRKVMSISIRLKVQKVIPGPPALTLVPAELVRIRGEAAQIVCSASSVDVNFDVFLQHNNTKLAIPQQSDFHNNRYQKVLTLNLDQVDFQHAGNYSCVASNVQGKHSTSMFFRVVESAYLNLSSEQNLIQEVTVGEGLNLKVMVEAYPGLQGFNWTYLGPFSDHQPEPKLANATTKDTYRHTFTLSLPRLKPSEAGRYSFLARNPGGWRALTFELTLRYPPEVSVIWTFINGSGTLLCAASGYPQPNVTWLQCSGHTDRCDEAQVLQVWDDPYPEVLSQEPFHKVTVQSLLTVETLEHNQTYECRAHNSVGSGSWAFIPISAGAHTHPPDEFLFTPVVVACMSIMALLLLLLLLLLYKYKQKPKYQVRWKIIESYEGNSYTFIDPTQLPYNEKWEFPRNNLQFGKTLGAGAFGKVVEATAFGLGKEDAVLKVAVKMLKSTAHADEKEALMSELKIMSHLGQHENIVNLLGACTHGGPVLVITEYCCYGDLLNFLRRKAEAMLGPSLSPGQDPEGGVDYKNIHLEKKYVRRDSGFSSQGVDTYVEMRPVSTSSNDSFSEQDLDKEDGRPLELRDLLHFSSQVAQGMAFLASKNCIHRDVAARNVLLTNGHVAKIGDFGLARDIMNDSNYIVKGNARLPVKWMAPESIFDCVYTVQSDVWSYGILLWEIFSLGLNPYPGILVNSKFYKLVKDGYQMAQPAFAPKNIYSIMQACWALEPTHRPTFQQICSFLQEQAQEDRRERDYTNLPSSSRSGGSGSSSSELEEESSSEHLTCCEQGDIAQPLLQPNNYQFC
# UniProt P41240: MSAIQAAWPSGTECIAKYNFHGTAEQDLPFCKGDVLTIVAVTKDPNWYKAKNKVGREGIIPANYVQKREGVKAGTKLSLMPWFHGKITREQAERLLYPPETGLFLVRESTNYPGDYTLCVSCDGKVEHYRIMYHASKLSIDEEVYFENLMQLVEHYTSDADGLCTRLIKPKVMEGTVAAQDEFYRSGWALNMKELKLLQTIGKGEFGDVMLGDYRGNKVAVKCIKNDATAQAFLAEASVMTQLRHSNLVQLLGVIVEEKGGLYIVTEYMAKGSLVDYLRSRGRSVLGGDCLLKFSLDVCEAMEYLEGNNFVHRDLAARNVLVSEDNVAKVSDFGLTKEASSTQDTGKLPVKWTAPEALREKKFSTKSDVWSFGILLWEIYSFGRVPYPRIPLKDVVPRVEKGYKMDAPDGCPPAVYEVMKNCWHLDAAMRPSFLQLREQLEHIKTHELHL
# UniProt P48729: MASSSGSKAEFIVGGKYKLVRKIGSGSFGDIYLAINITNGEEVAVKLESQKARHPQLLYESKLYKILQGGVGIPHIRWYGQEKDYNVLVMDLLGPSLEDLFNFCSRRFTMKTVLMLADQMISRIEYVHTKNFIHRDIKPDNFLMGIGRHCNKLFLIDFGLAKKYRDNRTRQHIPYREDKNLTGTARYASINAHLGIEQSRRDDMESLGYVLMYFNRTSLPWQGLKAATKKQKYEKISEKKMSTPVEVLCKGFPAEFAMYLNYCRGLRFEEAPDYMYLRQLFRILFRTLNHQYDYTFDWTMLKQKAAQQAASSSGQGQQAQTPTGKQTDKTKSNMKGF
# UniProt P48730: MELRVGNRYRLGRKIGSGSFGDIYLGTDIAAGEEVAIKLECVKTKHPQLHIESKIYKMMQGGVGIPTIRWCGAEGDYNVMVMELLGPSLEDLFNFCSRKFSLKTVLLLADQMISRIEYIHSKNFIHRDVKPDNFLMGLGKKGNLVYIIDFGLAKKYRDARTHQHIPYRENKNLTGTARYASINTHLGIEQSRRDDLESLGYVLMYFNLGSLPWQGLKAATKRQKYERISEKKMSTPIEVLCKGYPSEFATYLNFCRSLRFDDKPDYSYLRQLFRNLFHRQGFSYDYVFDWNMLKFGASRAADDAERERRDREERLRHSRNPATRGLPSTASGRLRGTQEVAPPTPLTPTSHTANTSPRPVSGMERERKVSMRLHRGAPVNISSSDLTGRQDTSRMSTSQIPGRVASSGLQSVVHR
# UniProt Q08345: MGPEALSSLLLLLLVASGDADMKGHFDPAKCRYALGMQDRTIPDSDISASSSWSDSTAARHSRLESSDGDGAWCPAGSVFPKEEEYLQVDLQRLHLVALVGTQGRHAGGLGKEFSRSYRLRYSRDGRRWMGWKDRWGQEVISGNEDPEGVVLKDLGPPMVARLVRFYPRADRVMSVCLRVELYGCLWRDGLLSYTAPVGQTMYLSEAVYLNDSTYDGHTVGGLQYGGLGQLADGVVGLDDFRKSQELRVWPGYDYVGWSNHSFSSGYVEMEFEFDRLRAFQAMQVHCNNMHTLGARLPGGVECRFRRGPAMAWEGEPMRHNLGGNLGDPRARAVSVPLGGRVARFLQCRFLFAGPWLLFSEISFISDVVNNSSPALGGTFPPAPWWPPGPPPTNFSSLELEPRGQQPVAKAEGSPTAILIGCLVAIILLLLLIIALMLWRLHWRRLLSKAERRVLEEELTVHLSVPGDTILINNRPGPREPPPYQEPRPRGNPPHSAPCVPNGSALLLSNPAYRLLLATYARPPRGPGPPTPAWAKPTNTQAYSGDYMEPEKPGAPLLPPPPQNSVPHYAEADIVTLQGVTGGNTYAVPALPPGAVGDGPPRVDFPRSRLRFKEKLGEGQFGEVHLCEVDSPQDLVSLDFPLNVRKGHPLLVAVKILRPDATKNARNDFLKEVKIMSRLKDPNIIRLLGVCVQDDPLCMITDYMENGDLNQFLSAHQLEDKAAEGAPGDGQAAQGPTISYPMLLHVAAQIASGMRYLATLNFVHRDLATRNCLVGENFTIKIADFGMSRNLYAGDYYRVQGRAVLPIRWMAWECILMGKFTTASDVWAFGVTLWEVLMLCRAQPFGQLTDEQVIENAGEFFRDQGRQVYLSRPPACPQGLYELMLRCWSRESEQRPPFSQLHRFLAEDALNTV
# UniProt Q9Y463, whole entry, looked up: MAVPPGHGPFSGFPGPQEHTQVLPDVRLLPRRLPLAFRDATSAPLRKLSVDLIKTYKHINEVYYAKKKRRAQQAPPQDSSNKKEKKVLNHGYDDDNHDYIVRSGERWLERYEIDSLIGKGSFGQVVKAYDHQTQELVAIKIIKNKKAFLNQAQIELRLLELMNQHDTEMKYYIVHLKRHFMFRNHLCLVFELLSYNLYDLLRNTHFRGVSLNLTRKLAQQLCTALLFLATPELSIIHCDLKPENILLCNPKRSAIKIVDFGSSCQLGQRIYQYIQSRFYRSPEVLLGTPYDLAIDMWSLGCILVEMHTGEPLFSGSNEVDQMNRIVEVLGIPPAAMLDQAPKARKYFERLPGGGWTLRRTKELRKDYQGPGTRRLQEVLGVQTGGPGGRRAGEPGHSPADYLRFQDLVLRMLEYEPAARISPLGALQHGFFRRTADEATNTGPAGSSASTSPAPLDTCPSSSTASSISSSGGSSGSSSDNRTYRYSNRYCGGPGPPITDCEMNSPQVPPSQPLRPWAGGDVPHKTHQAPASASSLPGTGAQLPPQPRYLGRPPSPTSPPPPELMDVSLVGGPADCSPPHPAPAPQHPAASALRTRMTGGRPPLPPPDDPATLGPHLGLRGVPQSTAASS
# UniProt Q92630: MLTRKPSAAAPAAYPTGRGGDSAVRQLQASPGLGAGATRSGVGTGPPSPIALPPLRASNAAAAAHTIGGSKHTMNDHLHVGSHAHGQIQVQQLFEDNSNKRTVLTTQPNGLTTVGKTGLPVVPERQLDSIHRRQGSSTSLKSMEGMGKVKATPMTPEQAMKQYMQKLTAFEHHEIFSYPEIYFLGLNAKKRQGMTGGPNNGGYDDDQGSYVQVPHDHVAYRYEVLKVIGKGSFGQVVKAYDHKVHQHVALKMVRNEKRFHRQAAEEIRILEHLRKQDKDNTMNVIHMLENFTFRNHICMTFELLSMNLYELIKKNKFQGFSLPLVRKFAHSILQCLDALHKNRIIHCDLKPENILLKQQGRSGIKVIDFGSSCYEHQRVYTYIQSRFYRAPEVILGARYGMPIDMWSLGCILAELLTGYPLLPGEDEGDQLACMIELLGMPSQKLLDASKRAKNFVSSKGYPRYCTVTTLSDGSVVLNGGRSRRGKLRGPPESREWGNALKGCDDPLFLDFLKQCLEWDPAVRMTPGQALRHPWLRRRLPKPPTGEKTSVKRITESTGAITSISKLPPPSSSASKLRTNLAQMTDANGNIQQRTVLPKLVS
# Where a name gives a salt, the structure may show the parent alone. This is one part of the list. Hit calls seldom repeat between salt and free forms of one compound.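 Kinases, fused to nanoluciferase, were expressed in K562 cells; luminescence was measured every 4 h from 2 to 18 h as percent of control (DMSO = 100%, positive control = 0%). A time point is decreased if signal falls significantly (2 sigma). Hits were called by the authors by a rule that is not shown; the count of time points alone does not decide it.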
# Legend:
# Test in all cases: number of time points (of 5) at which kinase-Nluc abundance scored as decreased, DMSO-normalised (count); higher = more persistent destabilization
# Conditions in all cases: K562; 2-18 h
# [1] = biological target: CAMK2A (UniProt Q9UQM7)
# [2] = biological target: CAMK2G (UniProt Q13555)
# [3] = biological target: CDK10 (UniProt Q15131)
# [4] = biological target: CDK2 (UniProt P24941)
# [5] = biological target: CDK3 (UniProt Q00526)
# [6] = biological target: CDK5 (UniProt Q00535)
# [7] = biological target: CDK6 (UniProt Q00534)
# [8] = biological target: CHEK2 (UniProt O96017)
# [9] = biological target: CSF1R (UniProt P07333)
# [10] = biological target: CSK (UniProt P41240)
# [11] = biological target: CSNK1A1 (UniProt P48729)
# [12] = biological target: CSNK1D (UniProt P48730)
# [13] = biological target: DDR1 (UniProt Q08345)
# [14] = biological target: DYRK1B (UniProt Q9Y463)
# [15] = biological target: DYRK2 (UniProt Q92630)
# [16] = biological target: EGFR (UniProt P00533)
# [17] = biological target: EGFR_G719S (UniProt P00533)
# [18] = biological target: EGFR_G719S_T790M (UniProt P00533)
# [19] = biological target: EGFR_L718V (UniProt P00533)
# [20] = biological target: EGFR_L858R (UniProt P00533)
Structure (SMILES),number of time points [1],number of time points [2],number of time points [3],number of time points [4],number of time points [5],number of time points [6],number of time points [7],number of time points [8],number of time points [9],number of time points [10],number of time points [11],number of time points [12],number of time points [13],number of time points [14],number of time points [15],number of time points [16],number of time points [17],number of time points [18],number of time points [19],number of time points [20]
Cc1c[nH]c(/C=C2\C(=O)Nc3ccccc32)c1CCC(=O)O (10 µM),1,0,0,0,0,0,0,0,0,0,0,0,0,0,0,0,0,0,0,0
CCCCOc1c(C(=O)c2c(F)cc(C)cc2F)c[nH]c2nncc1-2 (10 µM),0,0,0,0,0,0,0,0,0,0,0,0,0,0,0,0,0,0,0,0
COc1ccc2c(NC(=O)Nc3cccc(C(F)(F)F)n3)ccnc2c1 (10 µM),0,0,0,0,0,0,0,0,0,0,–,–,0,0,0,–,–,–,–,–
CN(c1ncccc1CNc1nc(Nc2ccc3c(c2)CC(=O)N3)ncc1C(F)(F)F)S(C)(=O)=O (2.5 µM),0,0,0,0,0,0,0,0,0,0,–,0,3,0,1,–,–,–,–,–
CC#CC(=O)N[C@H]1CCCN(c2c(F)cc(C(N)=O)c3[nH]c(C)c(C)c23)C1 [Branebrutinib] (10 µM),0,0,0,0,0,0,0,0,0,0,0,0,0,0,0,0,0,0,0,0
CC(=O)NCC(=O)N1[C@@H]2CC[C@H]1c1ccc(Nc3ncc(C(F)(F)F)c(NC4CCC4)n3)cc12 (2.5 µM),0,2,0,0,0,0,0,2,3,0,0,–,4,0,4,–,–,–,–,–
O=S(=O)(NCCNC/C=C/c1ccc(Br)cc1)c1cccc2cnccc12 [H-89 (dihydrochloride)] (10 µM),0,0,0,0,0,0,0,0,0,0,0,–,–,0,0,–,–,–,–,–
Cc1cc(C)c(/C=C2\C(=O)Nc3ccccc32)[nH]1 [Semaxinib] (10 µM),0,0,0,0,0,0,0,0,0,0,–,0,0,0,0,–,–,–,–,–
O=C(c1ccc(-c2ccc(Cl)cc2)o1)N(Cc1ccccn1)c1ccc(N2CCNCC2)cc1 [MK2-IN-1 (hydrochloride)] (10 µM),0,0,5,0,0,0,0,1,0,0,0,0,1,0,1,0,0,0,0,0
COc1cc(CCc2cc(-c3nc4ccc(N5CCN(C)CC5)cc4[nH]3)n[nH]2)cc(OC)c1 (10 µM),0,2,0,0,0,0,0,1,0,0,0,2,2,2,4,0,0,1,0,1
COc1cc(Nc2ncc3c(n2)-c2ccc(Cl)cc2C(c2c(F)cccc2OC)=NC3)ccc1C(=O)O [Alisertib] (2.5 µM),0,0,0,0,0,1,0,0,0,0,–,0,1,0,0,–,–,–,–,–
CC(C)(C)n1nc(Cc2cccc3ccccc23)c2c(N)ncnc21 (10 µM),0,0,0,0,0,0,0,0,0,0,–,0,0,0,0,0,0,0,0,0
CC(C)C(=O)Nc1ncc(-c2cc(C(F)F)nn2-c2c(Cl)cccc2Cl)s1 (10 µM),0,0,0,0,0,0,0,0,0,0,1,0,0,0,0,0,–,0,0,0
CCN1CCN(Cc2ccc(C(=O)Nc3ccc(C)c(Oc4ccc5c(c4)CC(=O)N5)c3)cc2C(F)(F)F)CC1 (2.5 µM),0,2,1,0,0,0,0,2,1,0,1,1,–,1,3,0,2,2,1,3
